Reference: article PMC12785128
No constants are given. Whether binding was seen depends on the method and setting. Binding seen in cells or lysates may run through a third protein. Some binding calls cover weakened binding; strength is not graded here.

By UniProt entry, the sequences of proteins in these tests, tags left out. Where a name states a change or a piece, a line headed by the entry shows the natural chain unless it says otherwise. Residues count along the entry.
UniProt P01033, residues 24-207: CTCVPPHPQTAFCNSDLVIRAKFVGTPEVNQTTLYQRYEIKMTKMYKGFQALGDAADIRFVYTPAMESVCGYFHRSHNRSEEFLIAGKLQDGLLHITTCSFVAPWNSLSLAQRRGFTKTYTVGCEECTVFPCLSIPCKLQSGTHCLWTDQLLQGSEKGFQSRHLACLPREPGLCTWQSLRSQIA
UniProt P12032, residues 25-205: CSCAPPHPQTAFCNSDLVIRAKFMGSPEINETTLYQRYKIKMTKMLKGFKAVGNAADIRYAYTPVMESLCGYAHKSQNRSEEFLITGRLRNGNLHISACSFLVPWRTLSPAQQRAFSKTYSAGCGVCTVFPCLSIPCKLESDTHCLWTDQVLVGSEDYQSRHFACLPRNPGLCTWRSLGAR
UniProt P09055, residues 21-798: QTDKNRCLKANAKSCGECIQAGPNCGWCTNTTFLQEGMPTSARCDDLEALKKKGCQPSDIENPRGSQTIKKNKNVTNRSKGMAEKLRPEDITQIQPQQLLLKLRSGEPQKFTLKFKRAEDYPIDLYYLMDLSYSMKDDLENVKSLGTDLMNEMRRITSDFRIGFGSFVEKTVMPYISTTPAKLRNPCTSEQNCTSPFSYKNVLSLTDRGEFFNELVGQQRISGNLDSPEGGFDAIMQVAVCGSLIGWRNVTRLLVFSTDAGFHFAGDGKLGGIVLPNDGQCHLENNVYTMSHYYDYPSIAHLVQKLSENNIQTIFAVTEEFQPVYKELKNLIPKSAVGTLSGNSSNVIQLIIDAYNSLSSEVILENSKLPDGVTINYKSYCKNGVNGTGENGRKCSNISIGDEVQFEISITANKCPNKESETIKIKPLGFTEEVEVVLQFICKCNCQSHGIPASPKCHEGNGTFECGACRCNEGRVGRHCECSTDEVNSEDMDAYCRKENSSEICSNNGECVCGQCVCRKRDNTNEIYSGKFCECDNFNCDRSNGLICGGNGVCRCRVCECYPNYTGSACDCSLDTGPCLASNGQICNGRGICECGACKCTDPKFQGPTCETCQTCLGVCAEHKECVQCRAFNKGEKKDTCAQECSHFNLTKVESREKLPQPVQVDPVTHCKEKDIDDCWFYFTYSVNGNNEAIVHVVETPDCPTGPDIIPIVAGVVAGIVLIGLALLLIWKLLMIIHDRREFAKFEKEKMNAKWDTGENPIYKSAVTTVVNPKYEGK
UniProt P05556: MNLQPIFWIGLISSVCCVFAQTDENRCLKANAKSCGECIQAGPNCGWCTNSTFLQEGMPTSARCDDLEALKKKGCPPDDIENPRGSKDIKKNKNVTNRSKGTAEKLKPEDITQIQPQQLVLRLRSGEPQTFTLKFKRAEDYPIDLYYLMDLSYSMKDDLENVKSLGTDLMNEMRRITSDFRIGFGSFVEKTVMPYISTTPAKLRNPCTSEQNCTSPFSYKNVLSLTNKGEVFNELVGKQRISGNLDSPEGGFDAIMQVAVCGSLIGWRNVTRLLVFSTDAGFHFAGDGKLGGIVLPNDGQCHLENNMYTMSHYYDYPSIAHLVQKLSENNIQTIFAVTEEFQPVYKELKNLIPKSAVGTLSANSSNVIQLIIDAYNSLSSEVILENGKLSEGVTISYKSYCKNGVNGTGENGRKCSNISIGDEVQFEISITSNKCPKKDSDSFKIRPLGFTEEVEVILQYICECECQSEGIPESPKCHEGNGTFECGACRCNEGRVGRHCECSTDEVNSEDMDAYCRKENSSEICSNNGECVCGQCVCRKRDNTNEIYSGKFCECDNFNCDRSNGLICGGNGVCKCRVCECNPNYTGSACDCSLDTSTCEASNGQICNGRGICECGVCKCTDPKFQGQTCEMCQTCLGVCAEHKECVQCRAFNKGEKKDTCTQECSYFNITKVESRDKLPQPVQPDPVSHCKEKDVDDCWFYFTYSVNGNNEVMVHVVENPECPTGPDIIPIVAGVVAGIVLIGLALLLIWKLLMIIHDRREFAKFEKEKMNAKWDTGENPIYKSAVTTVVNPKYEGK

B1: CD63, endogenous in RAW264.7 macrophages (receptor, UniProt P41731 1-238)
chain: MAVEGGMKCVKFLLYVLLLAFCACAVGLIAIGVAVQVVLKQAITHETTAGSLLPVVIIAVGAFLFLVAFVGCCGACKENYCLMITFAIFLSLIMLVEVAVAIAGYVFRDQVKSEFNKSFQQQMQNYLKDNKTATILDKLQKENNCCGASNYTDWENIPGMAKDRVPDSCCINITVGCGNDFKESTIHTQGCVETIAIWLRKNILLVAAAALGIAFVEVLGIIFSCCLVKSIRSGYEVM

What was measured:
[1] = target: tissue inhibitor of metalloproteinases-1 (TIMP1), endogenous in THP-1-derived macrophages (human (endogenous in THP-1)) (UniProt P01033); assay: co-IP; precleared cell lysates incubated overnight at 4 °C with protein A/G agarose beads carrying anti-TIMP1 or normal IgG; washed with lysis buffer; Western blot for CD63, β1-integrin and TIMP1; endogenous proteins of RAW264.7 and THP-1-derived macrophages
[2] = target: tissue inhibitor of metalloproteinases-1 (TIMP1), endogenous in RAW264.7 macrophages (mouse (endogenous in RAW264.7)) (UniProt P12032); assay: as above

Molecule | binding [1] | binding [2]
CD63, endogenous in THP-1-derived macrophages (from UniProt P08962 1-238) (receptor) | binds | –
β1-integrin, endogenous in RAW264.7 macrophages (from UniProt P09055 21-798) (receptor) | – | binds
β1-integrin, endogenous in THP-1-derived macrophages (from UniProt P05556 21-798) (receptor) | binds | –
B1 | – | binds
